{
  "sequences": {"note": "Sequences of proteins named here, by UniProt entry; tags and fusion partners are left off.", "UniProt P11940": "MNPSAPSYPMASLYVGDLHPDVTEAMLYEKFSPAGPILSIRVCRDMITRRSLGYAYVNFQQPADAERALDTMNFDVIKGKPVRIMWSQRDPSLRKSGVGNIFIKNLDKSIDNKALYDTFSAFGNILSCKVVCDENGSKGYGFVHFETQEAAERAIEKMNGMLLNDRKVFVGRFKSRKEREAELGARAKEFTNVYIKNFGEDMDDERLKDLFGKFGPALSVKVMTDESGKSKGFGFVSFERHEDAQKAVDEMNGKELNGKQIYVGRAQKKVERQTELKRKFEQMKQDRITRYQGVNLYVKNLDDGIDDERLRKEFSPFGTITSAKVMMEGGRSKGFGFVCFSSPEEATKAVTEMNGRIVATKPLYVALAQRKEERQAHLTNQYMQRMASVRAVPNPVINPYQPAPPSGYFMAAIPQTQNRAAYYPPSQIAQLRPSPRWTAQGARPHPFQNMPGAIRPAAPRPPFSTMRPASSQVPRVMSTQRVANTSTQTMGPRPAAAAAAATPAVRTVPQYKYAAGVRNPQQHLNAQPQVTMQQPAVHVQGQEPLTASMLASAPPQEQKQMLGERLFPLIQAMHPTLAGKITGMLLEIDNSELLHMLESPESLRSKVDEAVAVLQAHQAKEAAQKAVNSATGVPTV"},
  "source": "paper PMC6805484",
  "key": {"[1]": {"molecular_target": "T1, GFP-MKRN1^wt (Makorin Ring Finger Protein 1, wild type, N-terminally GFP-tagged) (human) (UniProt Q9UHC7)", "T1 sequence": "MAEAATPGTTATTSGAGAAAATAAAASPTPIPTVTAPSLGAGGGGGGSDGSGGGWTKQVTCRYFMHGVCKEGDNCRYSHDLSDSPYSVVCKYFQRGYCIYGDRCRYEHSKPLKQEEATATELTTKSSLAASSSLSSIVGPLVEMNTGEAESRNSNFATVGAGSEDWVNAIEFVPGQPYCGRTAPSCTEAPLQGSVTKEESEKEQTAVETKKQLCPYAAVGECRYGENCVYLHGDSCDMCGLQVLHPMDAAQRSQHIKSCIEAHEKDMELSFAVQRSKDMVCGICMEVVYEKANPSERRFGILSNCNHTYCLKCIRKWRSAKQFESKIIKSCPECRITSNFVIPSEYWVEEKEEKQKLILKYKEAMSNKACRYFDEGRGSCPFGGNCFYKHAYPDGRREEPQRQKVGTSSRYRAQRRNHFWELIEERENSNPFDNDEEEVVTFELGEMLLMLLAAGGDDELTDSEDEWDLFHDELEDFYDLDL", "assay": "co-IP; GFP-trap agarose beads with cleared lysates of HEK293T cells transiently expressing a GFP-tagged bait or GFP (empty vector); mRIPA buffer, 1 h at 4 °C, five washes; Western blot for the endogenous partner"}, "[2]": {"molecular_target": "T2, GFP-MKRN1^RINGmut (H307E, ligase-dead) (human) (UniProt Q9UHC7)", "T2 sequence": "T1 sequence with H307E", "assay": "co-IP; GFP-trap agarose beads with cleared lysates of HEK293T cells transiently expressing a GFP-tagged bait or GFP (empty vector); mRIPA buffer, 1 h at 4 °C, five washes; Western blot for the endogenous partner"}},
  "note": "Substitutions are numbered along the chain they refer to. No constants are given. Whether binding was seen depends on the method and setting. In cells and extracts the contact can be indirect. Some entries that bind do so weakly or less than the wild type. Sequences can lack the tags named with a protein.",
  "data": [
    {"substance": "cytoplasmic poly(A)-binding protein PABPC1 (endogenous) (from UniProt P11940 1-636)", "values": [
      {"measurement": "binding", "setting": "[1]", "result": "binds"},
      {"measurement": "binding", "setting": "[2]", "result": "binds"}
    ]}
  ]
}
